Source: PubChem BioAssay AID1053208 (Peter MacCallum Cancer Centre, 2014)
Aim: 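Genes whose silencing cuts survival of bone tumour cells only with doxorubicin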 (primary screen). Cell system: mouse osteosarcoma cells, early-passage culture from an engineered mouse model of fibroblastic bone tumour. Reagent: siRNA pool against mouse genes, 40 nM. Timing: about 120 h (48 h before drug, then 72 h with drug). Conditions: doxorubicin 100 nM for 72 h, roughly 30-40% inhibitory dose. Measurement: 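Viability read as ATP luminescence after 72 h of 100 nM doxorubicin or none, duplicate wells averaged, scaled to non-targeting siRNA, then expressed as robust z-scores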. Direction: viability z-score with doxorubicin: higher = more viable cells under doxorubicin; viability z-score without drug: higher = more viable cells with knock-down alone. Active means: 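a pool counts as active when its viability z-score with doxorubicin is -2 or below and its z-score without drug lies between -2 and 2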.
Shown is one part, drawn at random, of about 17,000 reagents. In the full data, 788 (4.7%) got an active call. 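Calls rest on z-score classes alone; an extra cut-off of viability at most 70% of control was not applied to them.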 Unmarked entries are inactive. A reagent listed more than once was tested more than once; the source does not tell the runs apart. Not all columns of the deposit are shown.

Gpx4
- combined z-score class: no change with or without drug
- viability z-score with doxorubicin: 0.67
- viability z-score without drug: -0.84

Ergic3
- combined z-score class: no change with or without drug
- viability z-score with doxorubicin: -0.34
- viability z-score without drug: 0.17

Crb3
- combined z-score class: no change with or without drug
- viability z-score with doxorubicin: 0.67
- viability z-score without drug: 0

Ndufv2
- combined z-score class: no change with or without drug
- viability z-score with doxorubicin: 1.12
- viability z-score without drug: -1.52

Cyp1a1
- combined z-score class: no change with or without drug
- viability z-score with doxorubicin: 0.22
- viability z-score without drug: 0.51

Srebf1
- combined z-score class: no change with or without drug
- viability z-score with doxorubicin: 0.67
- viability z-score without drug: -0.17

Lsm12
- combined z-score class: no change with or without drug
- viability z-score with doxorubicin: -1.69
- viability z-score without drug: -0.34

Slamf1
- combined z-score class: high cell count without drug only
- viability z-score with doxorubicin: 0.9
- viability z-score without drug: 2.02

Nat1
- combined z-score class: no change with or without drug
- viability z-score with doxorubicin: 1.35
- viability z-score without drug: 0

Pacsin1
- combined z-score class: low cell count with and without drug
- viability z-score with doxorubicin: -2.02
- viability z-score without drug: -2.53

Krt35
- combined z-score class: no change with or without drug
- viability z-score with doxorubicin: -0.9
- viability z-score without drug: 1.01

Zfp524
- combined z-score class: no change with or without drug
- viability z-score with doxorubicin: 0.67
- viability z-score without drug: 0.84

Plag1
- combined z-score class: high cell count with doxorubicin only
- viability z-score with doxorubicin: 2.02
- viability z-score without drug: 0.84

Caml
- combined z-score class: no change with or without drug
- viability z-score with doxorubicin: -0.22
- viability z-score without drug: 0

Cd207
- combined z-score class: no change with or without drug
- viability z-score with doxorubicin: -1.35
- viability z-score without drug: 0.51

Selenbp1
- combined z-score class: no change with or without drug
- viability z-score with doxorubicin: -0.79
- viability z-score without drug: 0.51

Yipf5
- combined z-score class: no change with or without drug
- viability z-score with doxorubicin: 0.22
- viability z-score without drug: -0.17

Or8b46
- combined z-score class: no change with or without drug
- viability z-score with doxorubicin: 1.46
- viability z-score without drug: -0.17

Gabrr1
- combined z-score class: no change with or without drug
- viability z-score with doxorubicin: 1.24
- viability z-score without drug: 0.17

Eid1
- combined z-score class: no change with or without drug
- viability z-score with doxorubicin: -1.57
- viability z-score without drug: 0.67

Pde6b
- combined z-score class: no change with or without drug
- viability z-score with doxorubicin: -0.67
- viability z-score without drug: -0.51

Cxcl16
- combined z-score class: no change with or without drug
- viability z-score with doxorubicin: 0.67
- viability z-score without drug: -0.51

Klc4
- combined z-score class: low cell count with doxorubicin only (active)
- viability z-score with doxorubicin: -2.36
- viability z-score without drug: 1.18

Otos
- combined z-score class: low cell count with doxorubicin only (active)
- viability z-score with doxorubicin: -2.36
- viability z-score without drug: -1.69

Cops5
- combined z-score class: no change with or without drug
- viability z-score with doxorubicin: 1.46
- viability z-score without drug: -0.51

Ttc23
- combined z-score class: no change with or without drug
- viability z-score with doxorubicin: 1.69
- viability z-score without drug: 1.01

Serpinb11
- combined z-score class: no change with or without drug
- viability z-score with doxorubicin: -0.45
- viability z-score without drug: -0.17

Gzmf
- combined z-score class: no change with or without drug
- viability z-score with doxorubicin: 0.67
- viability z-score without drug: 1.52

Acly
- combined z-score class: no change with or without drug
- viability z-score with doxorubicin: 0.34
- viability z-score without drug: 0.17

F13a1
- combined z-score class: no change with or without drug
- viability z-score with doxorubicin: 0.22
- viability z-score without drug: 0.17

AB124611
- combined z-score class: no change with or without drug
- viability z-score with doxorubicin: 1.46
- viability z-score without drug: -0.51

Zfp819
- combined z-score class: low cell count without drug only
- viability z-score with doxorubicin: 0.22
- viability z-score without drug: -2.19

Pigx
- combined z-score class: no change with or without drug
- viability z-score with doxorubicin: -0.9
- viability z-score without drug: -0.84

Abo
- combined z-score class: no change with or without drug
- viability z-score with doxorubicin: -0.79
- viability z-score without drug: 0.17

Avpr1b
- combined z-score class: no change with or without drug
- viability z-score with doxorubicin: 0
- viability z-score without drug: 0.17

Avpr1b
- combined z-score class: no change with or without drug
- viability z-score with doxorubicin: 1.35
- viability z-score without drug: 0.17

Taken from above:
For “viability z-score with doxorubicin”, Ttc23 reads 1.69
AB124611, viability z-score without drug → -0.51
Under “combined z-score class”, F13a1 has no change with or without drug
